Measurements taken from article PMC6638966, “The demethylase NMAD-1 regulates DNA replication and repair in the Caenorhabditis elegans germline” (PLoS Genetics, 2019).
These are yes or no findings as the source states them, for the method shown. A result given as binding can be weak or reduced; the word gives no strength. Sequences can lack the tags named with a protein. For part of these data: In cells and extracts the contact can be indirect.

T1: recombinant His-tagged NMAD-1 (C. elegans) (UniProt Q8MNT9)
T1 sequence: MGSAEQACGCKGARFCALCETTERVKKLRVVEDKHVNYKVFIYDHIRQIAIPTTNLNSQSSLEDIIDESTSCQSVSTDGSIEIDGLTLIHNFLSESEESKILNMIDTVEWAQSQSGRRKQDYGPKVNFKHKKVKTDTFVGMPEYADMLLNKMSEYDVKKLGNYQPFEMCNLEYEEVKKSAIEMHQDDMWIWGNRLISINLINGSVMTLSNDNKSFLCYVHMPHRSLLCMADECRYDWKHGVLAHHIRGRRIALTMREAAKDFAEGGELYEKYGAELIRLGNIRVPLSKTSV

B1: recombinant His-tagged NMAD-1 (enzyme, C. elegans, UniProt Q8MNT9 1-291, looked up)
chain: T1 sequence
notes: NMAD-1 (F09F7.7) of C. elegans; also called HIS:NMAD-1; source: E. coli BL21, purified (Ni-NTA)

Key:
[1] = biological target: T1, recombinant His-tagged NMAD-1 (C. elegans); assay: pull-down; co-expression of His-tagged NMAD-1 and candidate proteins in BL21, His pull down; bands identified by molecular weight only
[2] = biological target: GST-tagged MTSS-1 (C. elegans); assay: pull-down; 3 μg GST-tagged protein on glutathione sepharose 4B beads with 1 μg HIS-tagged NMAD-1 in TAP wash buffer (50 mM Tris-HCl pH 8.0, 100 mM KCl), 1 h at 4 °C; blot probed with HIS antibody; both purified

Molecule | binding [1] | binding [2]
CEH-93 co-expressed with His-tagged NMAD-1 in BL21 (C. elegans) | binds | 
F37C4.5 co-expressed with His-tagged NMAD-1 in BL21 (C. elegans) | binds | 
B1 |  | binds
